Test results from patent US9855260B2, “Quinolinone derivatives” (GlaxoSmithKline LLC, priority 2011, dated 2018).
Some results were stated once for a whole list of compounds, not compound by compound.

System: Human recombinant AMPK
Experiment: AMPK Enzymatic Assay (Z'Lyte FRET format)
Format: biochemical
Conditions: AMPK activation, ATP 100 μM, means of at least 2 independent experiments

Row | SMILES | average pEC200 (-Log(compound concentration leading to a 2-fold AMPK activity increase))
1 | Cc1cc(-c2c([O-])c3cc(-c4ccc(C5(O)COC5)cc4)c(Cl)cc3[nH]c2=O)on1.[K+] [Example 173, 7-Chloro-6-(4-(3-hydroxyoxetan-3-yl)phenyl)-3-(3-methylisoxazol-5-yl)-2-oxo-1,2-dihydroquinolin-4-olate, potassium salt] | greater than or equal to 5.0
2 | Cc1nnc(-c2c([O-])c3cc(-c4ccc(N(C)C)cc4)c(Cl)cc3[nH]c2=O)o1.[K+] [Example 23, 7-Chloro-6-(4-(dimethylamino)phenyl)-3-(5-methyl-1,3,4-oxadiazol-2-yl)-2-oxo-1,2-dihydroquinolin-4-olate, potassium salt] | greater than or equal to 5.0
3 | Cc1cc(-c2c([O-])c3cc(-c4ccc(C5(CO)CCC5)cc4)c(Cl)cc3[nH]c2=O)on1.[K+] [Example 169, 7-Chloro-4-hydroxy-6-(4-(1-(hydroxymethyl)cyclobutyl)phenyl)-3-(3-methylisoxazol-5-yl) quinolin-2(1H)-one, potassium salt] | greater than or equal to 5.0
4 | CN(C)c1ccc(-c2cc3c([O-])c(-c4ccc(C#N)cc4)c(=O)[nH]c3cc2Cl)cc1.[K+] [Example 22, 7-Chloro-3-(4-cyanophenyl)-6-(4-(dimethylamino)phenyl)-2-oxo-1,2-dihydroquinolin-4-olate, potassium salt] | greater than or equal to 5.0
5 | COc1cnn(-c2c([O-])c3cc(-c4ccc(N(C)C)cc4)c(Cl)cc3[nH]c2=O)c1.[K+] [Example 168, 7-Chloro-6-(4-(dimethylamino)phenyl)-4-hydroxy-3-(4-methoxy-1H-pyrazol-1-yl)quinolin-2(1H)-one, potassium salt] | greater than or equal to 5.0
6 | Cc1ncc(-c2c([O-])c3cc(-c4ccc(N(C)C)cc4)c(Cl)cc3[nH]c2=O)s1.[K+] [Example 24, 7-Chloro-6-(4-(dimethylamino)phenyl)-3-(2-methylthiazol-5-yl)-2-oxo-1,2-dihydroquinolin-4-olate, potassium salt] | greater than or equal to 5.0
7 | CCn1ccc2cc(-c3cc4c([O-])c(-c5cc(C)no5)c(=O)[nH]c4cc3Cl)ccc21.[K+] [Example 171, 7-Chloro-6-(1-ethyl-1H-indol-5-yl)-3-(3-methylisoxazol-5-yl)-2-oxo-1,2-dihydroquinolin-4-olate, potassium salt] | greater than or equal to 5.0
8 | Cc1cc(-c2c([O-])c3cc(-c4ccc(C5(O)CCC5)cc4)c(Cl)cc3[nH]c2=O)on1.[K+] [Example 170, 7-Chloro-6-(4-(1-hydroxycyclobutyl)phenyl)-3-(3-methylisoxazol-5-yl)-2-oxo-1,2-dihydroquinolin-4-olate, potassium salt] | greater than or equal to 5.0
9 | Cc1nc(C)c(-c2c([O-])c3cc(-c4ccc(N(C)C)cc4)c(Cl)cc3[nH]c2=O)s1.[K+] [Example 25, 7-Chloro-6-(4-(dimethylamino)phenyl)-3-(2,4-dimethylthiazol-5-yl)-2-oxo-1,2-dihydroquinolin-4-olate, potassium salt] | greater than or equal to 5.0
10 | CN(C)c1ccc(-c2cc3c([O-])c(-c4ccc(N(C)C)cc4)c(=O)[nH]c3cc2Cl)cc1.[K+] [Example 21, 7-Chloro-3,6-bis(4-(dimethylamino)phenyl)-2-oxo-1,2-dihydroquinolin-4-olate, potassium salt] | greater than or equal to 5.0
11 | CCOc1ccc(-c2cc3c([O-])c(-c4cc(C)no4)c(=O)[nH]c3cc2Cl)cc1.[K+] [Example 172, 7-Chloro-6-(4-ethoxyphenyl)-3-(3-methylisoxazol-5-yl)-2-oxo-1,2-dihydroquinolin-4-olate, potassium salt] | greater than or equal to 5.0
12 | Cc1noc(-c2c([O-])c3cc(-c4ccc(N(C)C)cc4)c(Cl)cc3[nH]c2=O)n1.[K+] [Example 20, 7-Chloro-6-(4-(dimethylamino)phenyl)-3-(3-methyl-1,2,4-oxadiazol-5-yl)-2-oxo-1,2-dihydroquinolin-4-olate, potassium salt] | greater than or equal to 5.0
13 | Cc1nnc(-c2c([O-])c3cc(-c4ccc(N5CCCCC5)cc4)c(Cl)cc3[nH]c2=O)o1.[K+] [Example 26, 7-Chloro-3-(5-methyl-1,3,4-oxadiazol-2-yl)-2-oxo-6-(4-(piperidin-1-yl)phenyl)-1,2-dihydroquinolin-4-olate, potassium salt] | greater than or equal to 5.0
